{"source": "PubChem BioAssay AID1508600", "about": "(Functional Genomics Laboratory (NCATS/FGL), 2020)", "note": "The whole screen tested about 53,000 sequences, of which about 3,700 (7%) were called active.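 The calls were made as follows: active = gene knockdowns whose robust z-score for IL-1 alpha signal is at least 2 or at most -2, so actives lie on both sides; inactive = the rest.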 The list shows a part of the results.", "data": [{"assay": "Components of the Cytosolic LPS Sensing Pathway: Gene Identification via Genome-wide siRNA Screen;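 also: robust z of the log signal after scaling to non-targeting control siRNA wells of the plate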", "settings": "RAW264.7 macrophages, IL-1a HTRF, actives lie on both sides, screened at 100 nM (by protocol), cells primed 5 h with Pam3CSK4 first", "how_it_was_run": "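RAW264.7 mouse macrophages reverse-transfected with single siRNAs (100 nM final) for 48h, primed with Pam3CSK4 for 5 hours, then transfected with LipidA for 24 hour. Supernatant IL-1a read by HTRF; values normalized to negative-control median, log-transformed robust z-scores.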", "values": [{"sequence": "GGAAUUCAUACAGGAACUUTT against Mst1r", "z-score": "inactive: 0.0208"}, {"sequence": "CGAAAACGUACAAGAUGAATT against Nap1l4", "z-score": "inactive: -0.194"}, {"sequence": "GAUUCUUGUCGCUCAUAGCTT against Vmn1r52", "z-score": "inactive: -0.535"}, {"sequence": "GGAGCAGAGAAACUUCUCGTT against Gigyf1", "z-score": "active: -2.09"}, {"sequence": "GGUUCUUACCAAGAUGAAGTT against Ccdc159", "z-score": "inactive: 0.969"}, {"sequence": "GCUAAGGACUUUUGUUGACTT against G3bp1", "z-score": "inactive: 1.2"}, {"sequence": "CCACAUACUCUAAUGAAGUTT against Casp1", "z-score": "inactive: 0.176"}, {"sequence": "GCUUCAUAUUGCUAGGAAATT against Chrd", "z-score": "inactive: -1.11"}, {"sequence": "GGUGUCAGAGGUAUUUUCATT against Bik", "z-score": "inactive: -0.0455"}, {"sequence": "GGAUUCGAGCAGUUAGUGATT against Ikbkg", "z-score": "inactive: -1.16"}, {"sequence": "GGUGACAUAUUUGAAGUGGTT against Dmwd", "z-score": "inactive: -0.000303"}, {"sequence": "GCGUAUUGGGCAGAUCAAATT against Slit1", "z-score": "inactive: 1.36"}, {"sequence": "CCUUAUACGAAUGCCAUUCTT against Eed", "z-score": "inactive: -0.266"}, {"sequence": "CCGUCAAUCUUUAUACCACTT against Frzb", "z-score": "inactive: -0.262"}, {"sequence": "GGAAGGAUGAUUUUCAGAUTT against Mcf2", "z-score": "inactive: 0.952"}, {"sequence": "CGAUGAACACACGUCUUAUTT against Dtl", "z-score": "active: 2.05"}, {"sequence": "GGAGGUUUUUUUGUUUUGUTT against Serpinb13", "z-score": "inactive: -0.614"}, {"sequence": "CGUAAGAUCAACGAGAGAUTT against Ncaph2", "z-score": "inactive: -0.756"}, {"sequence": "GGCUAUGGCAAGCUAAGCATT against Pex5l", "z-score": "inactive: -0.505"}, {"sequence": "CUUACCACCCUGAGUUUCATT against Olfr1066", "z-score": "active: -3.2"}, {"sequence": "GGAAUCUGCUGAGGUUUAUTT against Cidea", "z-score": "active: 4.08"}, {"sequence": "GGACAUGACCUUAUUUGGATT against F2rl3", "z-score": "inactive: -1.19"}, {"sequence": "GCUUGUCUACUAUUUCACATT against Catsperg2", "z-score": "inactive: 0.575"}, {"sequence": "CGAGGCUGAAAGAUUGUAUTT against Rwdd2b", "z-score": "inactive: -0.126"}, {"sequence": "GCAACUAUACUGGACAAUUTT against Olfr328", "z-score": "inactive: -1.19"}, {"sequence": "GUUCGUGCGGGACAUGAUCTT against Rpl36", "z-score": "inactive: -0.481"}, {"sequence": "GGCGAGCUUAUCCAUGAUUTT against Eif3m", "z-score": "inactive: 0.637"}, {"sequence": "GCAAGACAAGUUCUACGAUTT against Csad", "z-score": "inactive: 1.83"}, {"sequence": "CCUUUUAAGUUCCUCCCACTT against Pdxp", "z-score": "inactive: 1.52"}, {"sequence": "GGACUACAGGUAUCGUGAUTT against Actbl2", "z-score": "inactive: -0.138"}, {"sequence": "GGAGAAAACUCAUGGCCCUTT against Prkag3", "z-score": "inactive: 0.0696"}, {"sequence": "GCACUUACCUAACACUAUCTT against Sva", "z-score": "inactive: 0.704"}, {"sequence": "CGAGAAGGAUAUAAUUGUUTT against Klhl18", "z-score": "inactive: 0.449"}, {"sequence": "GGACGUGAAGUGAAGUCAUTT against 1810009N02Rik", "z-score": "inactive: -0.626"}, {"sequence": "CCUCAGGUGUGUUUACAACTT against A230083G16Rik", "z-score": "inactive: 1.94"}, {"sequence": "GGUCCACUUAGUGGCUUAATT against Atp5pb", "z-score": "inactive: -0.227"}, {"sequence": "GGCUUUUGAGCUGGUCUUCTT against Ntn3", "z-score": "inactive: -1.2"}, {"sequence": "GCUCCUCACUUAUUGCCCATT against Zfp354b", "z-score": "inactive: -0.0805"}, {"sequence": "GCCUGCUUUGGAAAAAUCATT against Akr1c12", "z-score": "inactive: 0.209"}, {"sequence": "GAAGAGAAUGGAGAGAGAGTT against Vpreb2", "z-score": "inactive: -0.578"}, {"sequence": "GAGUGUGGAAGGAAGAGGUTT against Orai1", "z-score": "inactive: 1.82"}, {"sequence": "GGAAAGCAGACUUCUAAAGTT against Pdgfc", "z-score": "inactive: 0.13"}, {"sequence": "UGUCAACUGACUGUAGUAATT against Zmynd12", "z-score": "inactive: 1.66"}, {"sequence": "GGUACAGGCAAUUAAACUUTT against Pds5a", "z-score": "inactive: 1.24"}, {"sequence": "GGACUGUUGUAUUUGUGUGTT against Bmper", "z-score": "inactive: -1.14"}, {"sequence": "CCACAAUUACCCAGUAUGATT against Olfr498", "z-score": "inactive: -0.939"}, {"sequence": "GCAUGCGCAUGUCAUUGAATT against Zdhhc1", "z-score": "inactive: 1.71"}, {"sequence": "GGUGAAGCUGAAACAACAUTT against Mios", "z-score": "inactive: 0.909"}, {"sequence": "GGCUGCAAGCAAAAAUAGATT against 1700029J07Rik", "z-score": "inactive: -0.739"}, {"sequence": "GGAACUGAUGAUGGACCAGTT against Slc4a1", "z-score": "active: 3.39"}, {"sequence": "GUUCUGAAAAUAGAAUAAUTT against Vmn1r16", "z-score": "inactive: 0.237"}, {"sequence": "GCUUCACUUCUACCCUAGATT against Il18bp", "z-score": "inactive: -0.0537"}, {"sequence": "GCGAAUGAUUGCUUUCAAUTT against Inhbb", "z-score": "inactive: -0.714"}, {"sequence": "GGCUUUUUUCUGUCCCAAUTT against Clcn6", "z-score": "inactive: -1.03"}, {"sequence": "GCAUCCACACGGUUAAUCUTT against Tmeff2", "z-score": "inactive: 0.508"}, {"sequence": "GGUUGCUGUUUUGAUGACATT against Tff1", "z-score": "inactive: -0.328"}, {"sequence": "GGAGGUGAAGUAUUUAGGUTT against Ccm2", "z-score": "inactive: -0.219"}, {"sequence": "CGACACUAGUGAUCACUCUTT against Tmem125", "z-score": "inactive: -1.98"}, {"sequence": "GGUAAACUUGACAAUAGGATT against Zc3h14", "z-score": "inactive: -0.512"}, {"sequence": "CGCUCACUGGUUUUUAAUUTT against Itpripl2", "z-score": "inactive: 0.694"}, {"sequence": "GCAUGCAUGCUAUUGUUUUTT against 4931431C16Rik", "z-score": "inactive: 0.336"}, {"sequence": "CCACCUUAACUGUUGCUUUTT against Mmp2", "z-score": "inactive: 0.691"}, {"sequence": "GGAGGAAAUGAUGAUUUUCTT against Kbtbd2", "z-score": "inactive: 0.283"}, {"sequence": "GGAUAAAUGUGCAUCUUAGTT against Aasdhppt", "z-score": "inactive: 0.126"}, {"sequence": "CCAGAGUUUUAUAACGGAATT against Olfr1229", "z-score": "inactive: 0.601"}, {"sequence": "GCAUCUAGUGACUGUCAAUTT against Sbp", "z-score": "inactive: 0.418"}, {"sequence": "CCUCCACUUGCCAUAUUGUTT against Inava", "z-score": "inactive: -1.51"}, {"sequence": "GCAAUUACCUGGUUUAAUGTT against Jmjd6", "z-score": "inactive: 1.34"}, {"sequence": "GCUACUACACGCAAGAUUUTT against Tex13b", "z-score": "inactive: -0.901"}, {"sequence": "GGUAUCAGUGAGUGGUACGTT against Tsen15", "z-score": "inactive: -0.56"}, {"sequence": "CGCGCAGUGAAUAGCCUUCTT against Vipas39", "z-score": "inactive: -1.05"}, {"sequence": "GGGUUUUUCAAGAUAAACCTT against Nudt2", "z-score": "inactive: -1.24"}, {"sequence": "GGUGAGGUUAUUUCAAUACTT against 0610010F05Rik", "z-score": "inactive: -0.618"}, {"sequence": "CCAUUGCUAUCAACACUAATT against Alox5", "z-score": "inactive: -0.00402"}, {"sequence": "GCUAUCUUGGUGGAUCUAGTT against Tubb5", "z-score": "inactive: -0.818"}, {"sequence": "GCAGAAAUUAACAAGUCUCTT against Kif2c", "z-score": "inactive: 0.816"}, {"sequence": "GGCAGAUUUGGGUAAAAUUTT against Eif2s3y", "z-score": "inactive: -0.797"}, {"sequence": "GGGAAUGUUUUCAAAUUCCTT against Cpa6", "z-score": "inactive: 1.07"}, {"sequence": "GGGUUUAUAAAACUGAAGUTT against Cav2", "z-score": "inactive: 0.672"}, {"sequence": "CCUGUCACAGAUGUAUGUGTT against Rnf149", "z-score": "inactive: 0.331"}, {"sequence": "CGGCUAAAUGCAAGUAAAGTT against Rgma", "z-score": "inactive: -1.07"}, {"sequence": "GGACACCACGGAGUAUUUUTT against Mgat3", "z-score": "inactive: 0.597"}, {"sequence": "GGAUGACAGUGACCAAAGGTT against Prag1", "z-score": "inactive: 0.00782"}, {"sequence": "GGUUGUCUUUCAUCGACUCTT against Fbxo5", "z-score": "inactive: -0.000863"}, {"sequence": "CCAAUUUCAUACGGCAGUCTT against Slc66a1", "z-score": "inactive: 0.574"}, {"sequence": "CCAGCUAAUCCCAACAUGCTT against Pum1", "z-score": "inactive: -1.54"}, {"sequence": "CCUUGUGUAAGAGGUUUUUTT against Helz", "z-score": "inactive: 1.88"}, {"sequence": "GGUAAAGGUAAACUUAUACTT against Vmn1r148", "z-score": "active: -4.68"}, {"sequence": "GCAUCAGGAUUCUGAUAACTT against Mrgpra6", "z-score": "inactive: 0.15"}, {"sequence": "GCCUUCUGCUCCGAAGAAGTT against Rpl13", "z-score": "inactive: -0.444"}, {"sequence": "CCAUAGAUAUUUACGGAAATT against Slc9a4", "z-score": "inactive: 0.746"}, {"sequence": "GGCUGGUAUCUUUCAGAGUTT against Cox6c", "z-score": "active: 2.2"}, {"sequence": "CGAGCUAUCCACUUAAUCATT against Irak3", "z-score": "inactive: -0.859"}, {"sequence": "GGCACUGUGUGUCAGACAATT against Nt5dc1", "z-score": "inactive: 1.3"}, {"sequence": "CGAUUAGUCUCUCAUUAUUTT against Ipo11", "z-score": "inactive: -1.12"}, {"sequence": "CCAAGUCGUAAUCUAGAAGTT against Scn7a", "z-score": "inactive: 0.191"}, {"sequence": "GGACCAAGCUGUUAUUAACTT against Dhodh", "z-score": "inactive: 0.46"}, {"sequence": "GAUAUUUCCACUCUAGCACTT against Fcrlb", "z-score": "inactive: -0.404"}, {"sequence": "CUCCCAAAUGGAAUUGCAUTT against Rc3h1", "z-score": "inactive: -1.84"}, {"sequence": "GGAGGGAGAACUCAUCGAATT against Nudt14", "z-score": "inactive: -0.583"}, {"sequence": "CGCGAAAUAUGUGUGUUUATT against Nr4a2", "z-score": "inactive: 1.21"}, {"sequence": "GCCCUAUCUACGAUGAAAATT against Scamp2", "z-score": "inactive: -0.197"}, {"sequence": "GCACGAAGAGUUAAUGGAGTT against Aym1", "z-score": "inactive: -0.911"}, {"sequence": "GGGUGGUCAGGAAAAUCAUTT against Notch1", "z-score": "inactive: 0.298"}, {"sequence": "CGAAGACACCGAUAUUUCUTT against Slc10a4", "z-score": "inactive: 0.906"}, {"sequence": "UCUUACAAACUAGCUCUCCTT against Crabp2", "z-score": "inactive: -0.777"}]}]}
